Reference: patent US20240026017A1 (Kyowa Kirin, published 2024)
Changes are numbered by the printed parent chain. Results are given in words; binding and its absence hold for the method and conditions named. Some entries that bind do so weakly or less than the wild type. Values belong to the binder of their own block, whether it stands above or below them.

Target: T1, human CC chemokine receptor 1 (human CCR1) (human) (UniProt P32246)
T1 sequence: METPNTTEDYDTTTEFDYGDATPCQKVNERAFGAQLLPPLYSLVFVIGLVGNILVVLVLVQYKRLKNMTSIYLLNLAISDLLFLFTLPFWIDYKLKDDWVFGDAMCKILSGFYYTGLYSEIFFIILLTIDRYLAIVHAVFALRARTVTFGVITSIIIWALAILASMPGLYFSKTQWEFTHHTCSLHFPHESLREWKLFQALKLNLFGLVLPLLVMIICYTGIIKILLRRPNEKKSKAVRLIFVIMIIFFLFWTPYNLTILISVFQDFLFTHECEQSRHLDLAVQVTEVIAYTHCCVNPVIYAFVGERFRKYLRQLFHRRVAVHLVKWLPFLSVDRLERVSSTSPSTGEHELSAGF
Assay: flow cytometry on CHO-S-hCCR1 cells; bound = fluorescence 10 times or more that of isotype control hzDNP1

binding: binds
B1: hzKM5907 LV6HV0 antibody (antibody, V domains shown)
VH: EVQLLESGGGLVQPGGSLRLSCAASGFTFSRYGMSWVRQAPGKGLEWVSSISATFTYTYYTDNVKGRFTISRDNSKNTLYLQMNSLRAEDTAVYYCAKQDNYAWFDSWGQGTLVTVSS
VL: DVVMTQTPLSLPVTLGEPASISCRSSQSIVHSNGNTFLEWYLKKPGQSPKLLIYKVSSRFSGVPDRFSGSGSGTDFTLKISRVEAEDVGVYYCFQGSHIPWTFGGGTKLEIK

binding: binds
B2: hzKM5907 LV6HV7 antibody (antibody, V domains shown)
VH: B1 VH with L4V, G44R, S49A, A92G, V93M, A97T, K98R
VL: B1 VL
